From article PMC3587578
No constants are given. Whether binding was seen depends on the method and setting. In cells and extracts the contact can be indirect. Some binding calls cover weakened binding; strength is not graded here.

Sequences of proteins named here, by UniProt entry; tags and fusion partners are left off.
UniProt Q9Y6K9: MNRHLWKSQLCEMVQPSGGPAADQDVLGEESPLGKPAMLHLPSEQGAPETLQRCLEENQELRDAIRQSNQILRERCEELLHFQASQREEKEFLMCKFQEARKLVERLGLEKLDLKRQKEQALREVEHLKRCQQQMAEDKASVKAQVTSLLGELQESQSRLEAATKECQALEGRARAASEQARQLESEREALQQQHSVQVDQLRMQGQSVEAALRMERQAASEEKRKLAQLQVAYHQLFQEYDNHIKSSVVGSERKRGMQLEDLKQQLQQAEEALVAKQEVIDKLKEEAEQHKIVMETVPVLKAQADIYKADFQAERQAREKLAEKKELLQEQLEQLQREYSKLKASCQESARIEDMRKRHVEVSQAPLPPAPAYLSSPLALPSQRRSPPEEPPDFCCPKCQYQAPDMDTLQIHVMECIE
UniProt P03165: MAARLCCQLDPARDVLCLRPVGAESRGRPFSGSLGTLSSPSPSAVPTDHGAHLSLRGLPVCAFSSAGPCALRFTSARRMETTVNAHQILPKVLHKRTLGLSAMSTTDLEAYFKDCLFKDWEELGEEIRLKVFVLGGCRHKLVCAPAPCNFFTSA

How the values were obtained:
[1] = target: endogenous NEMO (human (endogenous in Huh7)) (UniProt Q9Y6K9); assay: co-IP; about 7.8×10^6 Huh7 cells transfected with wt HBV1.2mer, 72 h; lysates immunoprecipitated with anti-NEMO antibody; blotted with anti-NEMO, anti-Flip and anti-HBx
NEMO-FLAG = NEMO-FLAG (UniProt Q9Y6K9); assay: co-IP
[2] = target: HBx-HA (hepatitis B virus X protein, subtype ayw) (hepatitis B virus (subtype ayw)) (UniProt P03165); assay: co-IP

For “genome-driven HBx (expressed from the replication-competent wt HBV1.2mer) (from UniProt P03165 1-154)”, the binding [1] was “binds”.

“HBx-HA (hepatitis B virus X protein, subtype ayw) (from UniProt P03165 1-154)” was tested, and the binding (NEMO-FLAG) was “binds”.

In the case of NEMO-FLAG (from UniProt Q9Y6K9 1-419), the binding [2] is reported as “binds”.
